The source of these data is PubChem BioAssay AID248 (DTP/NCI, 2004).

In this assay the test system is L1210 leukemia ip in BDF1 mice, survival T/C. Put plainly: NCI In Vivo Anticancer Drug Screen. Data for tumor model L1210 Leukemia (intraperitoneal) in B6D2F1 (BDF1) mice. As to conditions: T/C endpoint: mean survival time, higher T/C = longer survival.
The mark [1] stands for this setting: dose: 200.0 mg/kg/injection, schedule: Q04DX002 (ip), vehicle: Klucel (hydroxypropylcellulose) (HPC).
Where [2] appears, read: dose: 400.0 mg/kg/injection, schedule: Q04DX002 (ip), vehicle: Klucel (hydroxypropylcellulose) (HPC).
The mark [3] stands for this setting: dose: 300.0 mg/kg/injection, schedule: Q01DX001 (ip), vehicle: saline.
Setting [4] is: dose: 400.0 mg/kg/injection, schedule: Q01DX009 (ip), vehicle: Klucel (hydroxypropylcellulose) (HPC).
The mark [5] stands for this setting: dose: 400.0 mg/kg/injection, schedule: Q01DX001 (ip), vehicle: Klucel (hydroxypropylcellulose) (HPC).
Where [6] appears, read: dose: 200.0 mg/kg/injection, schedule: Q04DX003 (ip), vehicle: saline with Tween-80.
Where [7] appears, read: dose: 400.0 mg/kg/injection, schedule: Q04DX003 (ip), vehicle: saline with Tween-80.
The mark [8] stands for this setting: dose: 150.0 mg/kg/injection, schedule: Q01DX001 (ip), vehicle: saline.

The list does not hold the whole screen: it is rich in T/C values a quarter to a half above the control, in often repeated tests (any T/C) and in doses without a T/C. Other doses and runs of a compound stand elsewhere. T/C gives the treated animals as a percentage of the vehicle group. Some doses have a count of surviving animals in place of a T/C: the source files T/C as zero there, which appears to mark a toxic dose or a test without result, not a measured value. Some doses without a T/C left all or most animals alive at the check, yet need not have been tolerated: the source hardly ever lists a survival T/C far under the control, and the zero likely stands for such cases as well. Survivors were counted at the toxicity check, usually on the fifth day, unless a day is given; later deaths do not show. Schedules are NCI's codes, read here as Q, the interval in days (D) or hours (H), X, the number of doses. Some entries were tested several times; the values are given in rising order. Some schedule codes hold Z or #, which are not explained here. Where survival is the endpoint, the PubChem record calls one and a half times the control and up active, and a quarter to a half above the control has no call in these data; cut-offs in other NCI protocols can differ. Some T/C values are followed by the survivors on the day toxicity was checked, most often the fifth; without a count, all were alive then.

As to `N=C(CNC1CC2CCC1C2)SS(=O)(=O)O` (configuration not stated), the survivor count by setting is: (dose: 25.0 mg/kg/injection, schedule: Q04DX002 (ip), vehicle: Klucel (hydroxypropylcellulose) (HPC)) 2 of 3; (dose: 50.0 mg/kg/injection, schedule: Q04DX002 (ip), vehicle: Klucel (hydroxypropylcellulose) (HPC)) 0 of 3; (dose: 100.0 mg/kg/injection, schedule: Q04DX002 (ip), vehicle: Klucel (hydroxypropylcellulose) (HPC)) 0 of 3; under setting [1], 0 of 3; under setting [2], 0 of 3.
Consider `Cc1cccc(OCC(O)CN2CCCCC2)c1` (configuration not stated), for which the survivor count reads like this: (dose: 100.0 mg/kg/injection, schedule: Q01DX009 (ip), vehicle: saline) 4 of 6; (dose: 200.0 mg/kg/injection, schedule: Q01DX009 (ip), vehicle: saline) 0 of 3 and 0 of 6.
On to `C=CC[Si](CC=C)(CC=C)OCC`, for which the survivor count (dose: 75.0 mg/kg/injection, schedule: Q01DX001 (ip), vehicle: other) is 6 of 6.
Regarding `NC(=S)N/N=C/c1ccc(Cl)s1`, the survivor count reads like this: under setting [1], 3 of 3; under setting [2], 3 of 3.
For the compound `COC(=O)/C=C/N(CCF)CCF`, the survivor count reads like this: (dose: 10.0 mg/kg/injection, schedule: Q01DX Z (ip), vehicle: other) 1 of 6; (dose: 30.0 mg/kg/injection, schedule: Q01DX Z (ip), vehicle: other) 0 of 6; (dose: 100.0 mg/kg/injection, schedule: Q01DX Z (ip), vehicle: other) 0 of 6; (dose: 300.0 mg/kg/injection, schedule: Q01DX Z (ip), vehicle: other) 0 of 6.
On to `CCCCCCCC/C=C\CCCCCCCC(=O)NCC[N+]1(C)CCCCC1`, for which the survivor count under setting [3] is 2 of 6.
In the case of `CNC(=O)c1cn(C2OC(CO)C(O)C2O)c2ncnc(N)c12` (configuration not stated), the T/C was 132 % of control (dose: 100.0 mg/kg/injection, schedule: Q01DX001 (ip), vehicle: water); 130 % of control (dose: 132.0 mg/kg/injection, schedule: Q01DX001 (ip), vehicle: water); 132 and 137 % of control [5 of 6 alive] (dose: 200.0 mg/kg/injection, schedule: Q01DX001 (ip), vehicle: water); 136 % of control (dose: 300.0 mg/kg/injection, schedule: Q01DX001 (ip), vehicle: water).
For `N#Cc1cc2c(N)[nH]nc2nc1N`, the survivor count is, setting by setting: (dose: 200.0 mg/kg/injection, schedule: Q01DX009 (ip), vehicle: Klucel (hydroxypropylcellulose) (HPC)) 6 of 6; under setting [4], 4 of 6.
With `C[N+](C)(C)CCCC#CC[N+]1(C)CCOCC1`, the T/C is, setting by setting: (dose: 5.0 mg/kg/injection, schedule: Q01DX009 (ip), vehicle: saline) 146 % of control; (dose: 23.0 mg/kg/injection, schedule: Q01DX009 (ip), vehicle: saline) 136 % of control; (dose: 39.0 mg/kg/injection, schedule: Q07DX009 (ip), vehicle: saline) 140 % of control.
With `O=C(/C=C\C(=O)Nc1ccc(C2=NCCN2)cc1)Nc1ccc(C2=NCCN2)cc1`, where the note is “dose: 120.0 mg/kg/injection, schedule: Q01DX Z (ip), vehicle: saline”, the survivor count was 1 of 6.
With `Cc1ccnc(N)c1`, the survivor count reads like this: (dose: 100.0 mg/kg/injection, schedule: Q04DX002 (ip), vehicle: saline) 1 of 3; (dose: 200.0 mg/kg/injection, schedule: Q04DX002 (ip), vehicle: saline) 0 of 3; (dose: 400.0 mg/kg/injection, schedule: Q04DX002 (ip), vehicle: saline) 0 of 3.
As to `O=C(COc1ccc(Cl)c(Cl)c1)NCc1cc[n+](Cc2ccc(S(=O)(=O)F)cc2)cc1`, the survivor count under setting [5] was 0 of 6.
For the compound `CC1CC(C)(C)N=C(C(C)C)O1` (configuration not stated), the survivor count reads like this: under setting [6], 6 of 6; under setting [7], 3 of 6.
Consider `Nc1ccc(-c2ccc(Nc3cc(S(=O)(=O)O)c(N)c4c3C(=O)c3ccccc3C4=O)cc2)c(S(=O)(=O)O)c1`, for which the survivor count is, setting by setting: (dose: 75.0 mg/kg/injection, schedule: Q01DX001 (ip), vehicle: saline) 2 of 6; under setting [8], 0 of 6; under setting [3], 0 of 6.
For the compound `CN(C)C1C=CS(=O)(=O)C1` (configuration not stated), under setting [5], the survivor count is reported as 1 of 6.
Regarding `NC(NCCN1CC1)(C(F)(F)F)C(F)(F)F`, the survivor count reads like this: (dose: 80.0 mg/kg/injection, schedule: Q01DX001 (ip), vehicle: Klucel (hydroxypropylcellulose) (HPC)) 1 of 6; (dose: 100.0 mg/kg/injection, schedule: Q01DX001 (ip), vehicle: Klucel (hydroxypropylcellulose) (HPC)) 1 of 6; (dose: 200.0 mg/kg/injection, schedule: Q01DX001 (ip), vehicle: Klucel (hydroxypropylcellulose) (HPC)) 1 of 6; under setting [5], 0 of 6.
Turning to `CCOC(=O)c1cccc2nc3n(c12)CCC3`, for the setting “dose: 400.0 mg/kg/injection, schedule: Q01DX001 (ip), vehicle: saline with Tween-80”, the survivor count is listed as 2 of 6.
In the case of `CC1CC[N-]CC1.CC1CC[N-]CC1.[Br][Pt+2]([Br])([Br])[Br]`, the survivor count reads like this: (dose: 25.0 mg/kg/injection, schedule: Q01DX009 (ip), vehicle: saline with Tween-80) 1 of 6; (dose: 50.0 mg/kg/injection, schedule: Q04DX003 (ip), vehicle: saline with Tween-80) 1 of 6; (dose: 100.0 mg/kg/injection, schedule: Q04DX003 (ip), vehicle: saline with Tween-80) 1 of 6; under setting [6], 0 of 6; under setting [7], 0 of 6.
`CC(C)C(C)(O)C(N)=O` (configuration not stated): the survivor count (dose: 400.0 mg/kg/injection, schedule: Q01DX001 (ip), vehicle: saline) is reported as 4 of 4.
As for `CC(C)(C)C(=O)CC(=O)C(C)(C)C`, the survivor count under setting [7] is recorded as 0 of 6.
As for `CCOc1cc[n+]([O-])cc1`, the survivor count is 1 of 3 under setting [5] and 1 of 6 (dose: 400.0 mg/kg/injection, schedule: Q04DX003 (ip), vehicle: saline).
Consider `Clc1c(Cl)c(Cl)c2n[nH]nc2c1Cl`, for which the survivor count runs as follows: under setting [8], 1 of 6; under setting [3], 0 of 6.
Regarding `OC1C2CC3C1C3C2c1ccccc1` (configuration not stated), the survivor count under setting [4] is 6 of 6.
For the compound `Cc1ccc(NC(=O)N(CCCl)N=O)cc1C`, the T/C is, setting by setting: (dose: 3.0 mg/kg/injection, schedule: Q01DX001 (ip), vehicle: carboxymethylcellulose (CMC)) 126 % of control; (dose: 12.0 mg/kg/injection, schedule: Q01DX001 (ip), vehicle: carboxymethylcellulose (CMC)) 147 % of control; (dose: 20.0 mg/kg/injection, schedule: Q01DX009 (ip), vehicle: carboxymethylcellulose (CMC)) 139 % of control. Besides, the survivor count by setting is: (dose: 29.0 mg/kg/injection, schedule: Q01DX009 (ip), vehicle: carboxymethylcellulose (CMC)) 3 of 6; (dose: 44.0 mg/kg/injection, schedule: Q01DX009 (ip), vehicle: carboxymethylcellulose (CMC)) 6 of 6; (dose: 66.0 mg/kg/injection, schedule: Q01DX009 (ip), vehicle: carboxymethylcellulose (CMC)) 4 of 6; (dose: 100.0 mg/kg/injection, schedule: Q01DX009 (ip), vehicle: carboxymethylcellulose (CMC)) 0 of 6; (dose: 150.0 mg/kg/injection, schedule: Q01DX001 (ip), vehicle: carboxymethylcellulose (CMC)) 4 of 6; (dose: 200.0 mg/kg/injection, schedule: Q01DX001 (ip), vehicle: carboxymethylcellulose (CMC)) 1 of 4. For the same compound, where the note is “dose: 400.0 mg/kg/injection, schedule: Q01DX001 (ip), vehicle: carboxymethylcellulose (CMC)”, the survivor count is on record as 0 of 4.
